The list shows a part of the results.
How the values were obtained:
Assay in all cases: log2 fold change, soluble protein after heating vs DMSO (PISA); higher = thermal stabilisation; K562 cells, 10 uM, 30 min; active = over 0.2 and 3.5 SD of the protein, either way, in both replicates (recomputed)
[1] = compound: C1=CC=C(C=C1)[C@H](COC2=CC3=C(C=C2)NC(=O)N3)NC(=O)C4=CC=CN(C4=O)CC5=CC(=C(C=C5)F)F
Method in brief: (§1)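 Quantification of soluble protein used TMTpro 16plex LC-MS/MS, with channel sums equalised. Samples were the supernatant after 21,000xg for 90 min of pooled aliquots from K562 cells (2×10^6 cells/mL) treated with 10 μM compound for 30 min, heated for 3 min over 48°C-58°C, and extracted in PBS with 0.5% NP-40 at 4°C. Values, from duplicates, describe thermal stability against control samples on a log2 fold-change scale.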

Protein sequences, listed by entry. Tags and fused reporters are not part of them. Lines headed by an entry give the natural chain unless they say otherwise; changes in a name come on top.
UniProt Q86W50: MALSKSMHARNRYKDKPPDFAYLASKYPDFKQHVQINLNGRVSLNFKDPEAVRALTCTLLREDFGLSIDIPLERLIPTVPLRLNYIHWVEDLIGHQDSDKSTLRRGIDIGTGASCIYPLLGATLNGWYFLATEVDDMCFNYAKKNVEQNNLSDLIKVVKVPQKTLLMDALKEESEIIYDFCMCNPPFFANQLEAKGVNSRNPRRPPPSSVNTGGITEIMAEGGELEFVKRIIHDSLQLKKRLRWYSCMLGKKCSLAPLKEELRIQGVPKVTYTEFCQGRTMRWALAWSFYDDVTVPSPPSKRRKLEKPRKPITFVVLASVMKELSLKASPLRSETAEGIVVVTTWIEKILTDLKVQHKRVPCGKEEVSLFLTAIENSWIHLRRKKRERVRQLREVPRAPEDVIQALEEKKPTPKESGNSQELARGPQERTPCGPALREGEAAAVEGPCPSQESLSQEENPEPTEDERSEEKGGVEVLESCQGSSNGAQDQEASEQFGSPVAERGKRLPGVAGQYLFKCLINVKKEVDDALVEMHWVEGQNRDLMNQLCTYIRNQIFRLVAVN
UniProt P40925: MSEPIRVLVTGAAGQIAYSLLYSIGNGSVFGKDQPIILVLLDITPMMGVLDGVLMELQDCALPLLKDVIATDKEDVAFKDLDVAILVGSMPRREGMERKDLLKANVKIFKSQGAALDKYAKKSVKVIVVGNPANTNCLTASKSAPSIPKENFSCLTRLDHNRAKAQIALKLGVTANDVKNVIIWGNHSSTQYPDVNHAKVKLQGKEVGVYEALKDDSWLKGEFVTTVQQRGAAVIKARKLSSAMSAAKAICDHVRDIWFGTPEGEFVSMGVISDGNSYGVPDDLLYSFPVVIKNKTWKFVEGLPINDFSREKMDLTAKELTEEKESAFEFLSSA
UniProt P33991: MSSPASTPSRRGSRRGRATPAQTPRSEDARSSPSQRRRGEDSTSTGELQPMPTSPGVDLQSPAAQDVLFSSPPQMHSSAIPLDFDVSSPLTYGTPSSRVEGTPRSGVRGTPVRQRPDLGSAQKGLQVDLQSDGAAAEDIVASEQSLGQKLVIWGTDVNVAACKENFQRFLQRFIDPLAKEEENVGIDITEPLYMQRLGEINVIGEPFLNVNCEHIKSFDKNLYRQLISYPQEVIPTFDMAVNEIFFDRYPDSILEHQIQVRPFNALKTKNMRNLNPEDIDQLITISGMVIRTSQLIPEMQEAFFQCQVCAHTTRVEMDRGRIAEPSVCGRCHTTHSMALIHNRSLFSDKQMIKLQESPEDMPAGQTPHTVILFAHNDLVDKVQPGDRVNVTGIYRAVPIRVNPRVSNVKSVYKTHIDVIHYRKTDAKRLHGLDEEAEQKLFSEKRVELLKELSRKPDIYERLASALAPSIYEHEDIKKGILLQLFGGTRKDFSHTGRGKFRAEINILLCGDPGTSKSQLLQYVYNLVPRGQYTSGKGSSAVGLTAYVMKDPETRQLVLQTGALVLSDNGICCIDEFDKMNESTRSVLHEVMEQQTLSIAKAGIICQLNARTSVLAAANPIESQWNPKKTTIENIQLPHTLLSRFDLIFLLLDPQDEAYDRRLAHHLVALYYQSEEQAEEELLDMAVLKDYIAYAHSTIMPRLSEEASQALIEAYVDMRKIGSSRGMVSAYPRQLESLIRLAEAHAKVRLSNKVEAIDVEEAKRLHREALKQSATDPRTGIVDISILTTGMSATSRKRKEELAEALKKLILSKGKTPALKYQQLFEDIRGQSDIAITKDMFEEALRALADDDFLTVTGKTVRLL
UniProt Q7L2J0: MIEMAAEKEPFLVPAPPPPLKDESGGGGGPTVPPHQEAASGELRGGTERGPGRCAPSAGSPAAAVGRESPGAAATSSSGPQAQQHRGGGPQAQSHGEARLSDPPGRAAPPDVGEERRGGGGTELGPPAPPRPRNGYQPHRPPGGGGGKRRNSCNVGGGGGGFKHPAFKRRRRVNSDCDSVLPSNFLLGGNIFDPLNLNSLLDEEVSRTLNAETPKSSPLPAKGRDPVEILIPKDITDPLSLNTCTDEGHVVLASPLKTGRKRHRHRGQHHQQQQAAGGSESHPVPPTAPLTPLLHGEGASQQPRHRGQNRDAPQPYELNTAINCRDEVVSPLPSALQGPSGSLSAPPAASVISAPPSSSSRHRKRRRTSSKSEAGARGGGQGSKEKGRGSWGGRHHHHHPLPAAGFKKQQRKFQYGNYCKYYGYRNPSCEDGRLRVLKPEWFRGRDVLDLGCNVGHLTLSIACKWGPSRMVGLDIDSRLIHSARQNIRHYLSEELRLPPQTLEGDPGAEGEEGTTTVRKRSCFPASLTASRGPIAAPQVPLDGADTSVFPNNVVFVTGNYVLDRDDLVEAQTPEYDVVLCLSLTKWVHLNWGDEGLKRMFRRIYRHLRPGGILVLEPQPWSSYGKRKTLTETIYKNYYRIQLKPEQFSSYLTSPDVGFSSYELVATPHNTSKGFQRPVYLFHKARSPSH
UniProt Q9UBB5, whole entry, looked up: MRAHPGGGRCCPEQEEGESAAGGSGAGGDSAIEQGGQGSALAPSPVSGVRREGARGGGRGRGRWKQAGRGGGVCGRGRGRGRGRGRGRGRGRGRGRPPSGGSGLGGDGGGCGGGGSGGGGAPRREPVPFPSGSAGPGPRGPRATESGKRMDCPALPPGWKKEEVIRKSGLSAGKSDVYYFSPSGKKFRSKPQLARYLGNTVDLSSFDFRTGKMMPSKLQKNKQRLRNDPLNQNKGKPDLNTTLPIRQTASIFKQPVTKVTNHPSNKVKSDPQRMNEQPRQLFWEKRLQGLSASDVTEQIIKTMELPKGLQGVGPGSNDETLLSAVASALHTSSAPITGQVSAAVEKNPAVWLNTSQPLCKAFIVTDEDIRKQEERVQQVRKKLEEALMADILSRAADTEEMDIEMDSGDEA
UniProt Q9Y2X0: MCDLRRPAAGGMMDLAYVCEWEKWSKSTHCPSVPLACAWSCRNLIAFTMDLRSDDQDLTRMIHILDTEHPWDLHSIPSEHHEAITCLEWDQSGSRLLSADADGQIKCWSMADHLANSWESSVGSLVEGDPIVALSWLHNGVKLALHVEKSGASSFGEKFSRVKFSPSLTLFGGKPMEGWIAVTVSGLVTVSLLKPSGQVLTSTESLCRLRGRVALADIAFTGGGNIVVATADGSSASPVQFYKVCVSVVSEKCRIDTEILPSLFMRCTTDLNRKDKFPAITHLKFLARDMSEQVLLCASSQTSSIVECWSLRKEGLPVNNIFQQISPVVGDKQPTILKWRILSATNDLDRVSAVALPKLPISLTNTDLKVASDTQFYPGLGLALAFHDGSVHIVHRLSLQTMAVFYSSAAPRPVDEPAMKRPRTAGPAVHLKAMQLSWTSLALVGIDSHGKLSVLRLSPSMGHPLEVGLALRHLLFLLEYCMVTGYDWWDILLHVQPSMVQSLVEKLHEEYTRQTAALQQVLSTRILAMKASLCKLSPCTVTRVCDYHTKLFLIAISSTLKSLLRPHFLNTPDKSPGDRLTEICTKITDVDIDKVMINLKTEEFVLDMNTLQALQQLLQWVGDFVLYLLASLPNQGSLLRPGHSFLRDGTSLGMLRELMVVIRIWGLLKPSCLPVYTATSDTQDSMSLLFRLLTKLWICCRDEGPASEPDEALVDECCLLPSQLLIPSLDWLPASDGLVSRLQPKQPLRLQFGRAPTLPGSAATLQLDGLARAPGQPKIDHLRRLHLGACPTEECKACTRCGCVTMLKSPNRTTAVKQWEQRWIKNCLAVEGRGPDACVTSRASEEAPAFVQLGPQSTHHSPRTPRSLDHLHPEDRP
UniProt Q9NRN9: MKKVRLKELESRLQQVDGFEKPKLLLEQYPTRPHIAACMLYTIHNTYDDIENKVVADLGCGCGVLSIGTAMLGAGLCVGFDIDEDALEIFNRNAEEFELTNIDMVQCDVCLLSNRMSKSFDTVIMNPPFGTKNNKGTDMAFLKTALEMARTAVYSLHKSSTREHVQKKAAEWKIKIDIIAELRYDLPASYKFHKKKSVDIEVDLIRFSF
UniProt Q8IWA4: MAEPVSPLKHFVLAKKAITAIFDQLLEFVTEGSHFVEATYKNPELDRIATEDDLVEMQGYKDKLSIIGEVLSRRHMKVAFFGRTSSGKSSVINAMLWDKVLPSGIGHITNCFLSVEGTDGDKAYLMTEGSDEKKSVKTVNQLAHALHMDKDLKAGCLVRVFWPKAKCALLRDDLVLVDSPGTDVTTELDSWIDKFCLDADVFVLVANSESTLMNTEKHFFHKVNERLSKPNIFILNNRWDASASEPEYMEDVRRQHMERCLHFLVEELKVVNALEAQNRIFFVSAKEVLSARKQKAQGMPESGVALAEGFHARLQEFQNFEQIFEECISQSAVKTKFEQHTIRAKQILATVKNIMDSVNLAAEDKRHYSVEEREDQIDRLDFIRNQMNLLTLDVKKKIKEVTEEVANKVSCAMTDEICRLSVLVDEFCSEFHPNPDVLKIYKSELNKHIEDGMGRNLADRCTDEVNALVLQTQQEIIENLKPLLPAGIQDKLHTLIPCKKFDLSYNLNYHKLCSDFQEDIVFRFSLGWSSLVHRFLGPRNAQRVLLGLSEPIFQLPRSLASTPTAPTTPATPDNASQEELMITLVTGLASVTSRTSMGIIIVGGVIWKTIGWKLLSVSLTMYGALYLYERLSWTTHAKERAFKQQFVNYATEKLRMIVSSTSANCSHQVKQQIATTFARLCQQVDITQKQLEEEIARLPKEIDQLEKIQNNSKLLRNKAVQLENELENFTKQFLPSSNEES
UniProt Q96PC5: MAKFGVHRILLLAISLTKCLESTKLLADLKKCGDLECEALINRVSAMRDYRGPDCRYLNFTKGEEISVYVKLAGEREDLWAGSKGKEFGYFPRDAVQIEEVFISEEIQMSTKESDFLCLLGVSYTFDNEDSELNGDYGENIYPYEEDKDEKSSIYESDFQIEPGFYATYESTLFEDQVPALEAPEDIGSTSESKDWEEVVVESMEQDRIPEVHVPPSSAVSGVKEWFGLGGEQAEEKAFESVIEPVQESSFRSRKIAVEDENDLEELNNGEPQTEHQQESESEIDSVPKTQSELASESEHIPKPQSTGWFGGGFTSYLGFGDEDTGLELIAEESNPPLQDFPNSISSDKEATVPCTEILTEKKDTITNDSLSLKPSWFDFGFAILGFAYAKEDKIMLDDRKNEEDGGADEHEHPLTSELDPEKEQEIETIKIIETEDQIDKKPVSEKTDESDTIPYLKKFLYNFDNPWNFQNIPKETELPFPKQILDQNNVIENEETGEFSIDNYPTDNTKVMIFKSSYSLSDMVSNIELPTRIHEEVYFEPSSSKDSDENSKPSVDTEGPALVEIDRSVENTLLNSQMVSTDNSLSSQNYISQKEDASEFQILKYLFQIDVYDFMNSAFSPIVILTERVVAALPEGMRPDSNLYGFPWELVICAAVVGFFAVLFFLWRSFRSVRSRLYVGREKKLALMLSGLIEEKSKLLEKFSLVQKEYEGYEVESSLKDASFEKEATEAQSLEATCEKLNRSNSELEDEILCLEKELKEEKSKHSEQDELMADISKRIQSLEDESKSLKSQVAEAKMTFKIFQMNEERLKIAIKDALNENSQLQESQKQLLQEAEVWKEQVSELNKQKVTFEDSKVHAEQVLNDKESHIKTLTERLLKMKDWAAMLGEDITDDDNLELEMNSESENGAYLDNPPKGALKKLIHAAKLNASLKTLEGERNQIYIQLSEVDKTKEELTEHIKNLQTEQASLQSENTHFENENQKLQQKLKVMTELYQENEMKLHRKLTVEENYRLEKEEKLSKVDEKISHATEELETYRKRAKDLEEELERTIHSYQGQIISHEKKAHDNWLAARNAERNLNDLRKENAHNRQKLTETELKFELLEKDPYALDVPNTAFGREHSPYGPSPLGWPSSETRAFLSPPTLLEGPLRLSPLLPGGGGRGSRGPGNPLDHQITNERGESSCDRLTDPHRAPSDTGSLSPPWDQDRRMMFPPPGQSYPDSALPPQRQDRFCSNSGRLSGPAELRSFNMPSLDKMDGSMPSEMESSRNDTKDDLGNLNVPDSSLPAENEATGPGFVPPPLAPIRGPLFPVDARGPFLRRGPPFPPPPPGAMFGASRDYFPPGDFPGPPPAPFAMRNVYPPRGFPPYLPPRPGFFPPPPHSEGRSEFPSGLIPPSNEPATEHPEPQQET
UniProt Q6ZNC8: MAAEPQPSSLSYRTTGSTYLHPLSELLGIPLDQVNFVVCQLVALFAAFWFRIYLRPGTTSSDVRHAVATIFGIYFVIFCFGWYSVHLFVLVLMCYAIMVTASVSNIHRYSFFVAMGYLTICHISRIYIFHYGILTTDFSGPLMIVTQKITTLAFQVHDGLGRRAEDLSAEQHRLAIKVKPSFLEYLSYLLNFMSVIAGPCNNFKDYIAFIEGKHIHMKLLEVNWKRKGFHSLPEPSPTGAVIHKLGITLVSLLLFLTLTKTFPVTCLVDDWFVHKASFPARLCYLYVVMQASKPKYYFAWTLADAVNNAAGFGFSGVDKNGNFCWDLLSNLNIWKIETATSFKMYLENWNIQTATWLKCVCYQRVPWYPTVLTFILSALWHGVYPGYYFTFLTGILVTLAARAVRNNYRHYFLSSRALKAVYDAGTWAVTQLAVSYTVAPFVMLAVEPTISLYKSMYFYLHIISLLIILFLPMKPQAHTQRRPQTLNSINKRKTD

[2] = compound: CC1=C(SC2=C1C(=N[C@H](C3=NN=C(N32)C)CC(=O)N)C4=CC=C(C=C4)Cl)C
Method in brief: as §1

[3] = compound: CC1=C2C(=CC=C1)N=C(N(C2=O)C3=CC=CC=C3C)CN4C=NC5=C(N=CN=C54)N
Method in brief: as §1

[4] = compound: Cc1sc2c(c1C)C(c1ccc(Cl)cc1)=N[C@@H](CC(=O)OC(C)(C)C)c1nnc(C)n1-2
Method in brief: as §1

[5] = compound: c1ccc([C@@H]2C[C@H]2NC2CCNCC2)cc1
Method in brief: as §1

Measured: log2 fold change

METTL16 (UniProt Q86W50)
inactive: [1] 0.047 | [2] -0.038 | [3] 0.057 | [4] -0.033 | [5] 0.021

MGST1 (UniProt P10620)
inactive: [1] -0.061 | [2] 0.032 | [3] -0.11 | [4] 0.05 | [5] 0.008

MEA1 (UniProt Q16626)
inactive: [1] 0.007 | [2] 0.064 | [3] -0.011 | [4] 0.025 | [5] 0.169

MAT1A (UniProt Q00266)
inactive: [1] 0.039 | [2] -0.061 | [3] -0.014 | [4] 0.029 | [5] 0.114

METTL9 (UniProt Q9H1A3)
inactive: [1] 0.167 | [2] 0.143 | [3] 0.066 | [4] 0.075 | [5] 0.16

MEMO1 (UniProt Q9Y316)
inactive: [1] -0.084 | [2] 0.046 | [3] -0.014 | [4] 0.005 | [5] -0.011

MDH1 isoform 3 (UniProt P40925)
inactive: [1] 0.016 | [2] 0 | [3] -0.031 | [4] -0.016 | [5] -0.007

MCUB (UniProt Q9NWR8)
inactive: [1] -0.085 | [2] 0.032 | [3] 0.032 | [4] -0.018 | [5] -0.091

MAT2B (UniProt Q9NZL9)
inactive: [1] 0.003 | [2] 0.013 | [3] 0.106 | [4] -0.033 | [5] 0.023

MGST2 (UniProt Q99735)
inactive: [1] -0.081 | [2] -0.294 | [3] -0.025 | [4] -0.011 | [5] 0.034

MCOLN1 (UniProt Q9GZU1)
inactive: [1] -0.03

MCM4 (UniProt P33991)
inactive: [1] -0.029 | [2] 0.063 | [3] 0.049 | [4] -0.034 | [5] -0.07

MCCC1 (UniProt Q96RQ3)
inactive: [1] -0.103 | [2] 0.071 | [3] 0.033 | [4] 0.004 | [5] -0.018

MFN2 (UniProt O95140)
inactive: [1] 0.01 | [2] 0.038 | [3] 0.013 | [4] -0.026 | [5] 0.001

MFSD1 isoform 6 (UniProt Q9H3U5)
inactive: [1] 0.001 | [2] 0.045 | [3] 0.043 | [4] -0.029 | [5] 0.039

MEPCE (UniProt Q7L2J0)
inactive: [1] 0.017 | [2] 0.001 | [3] 0.064 | [4] 0.028 | [5] 0.008

METTL21A (UniProt Q8WXB1)
inactive: [1] -0.028 | [2] -0.009 | [3] 0.001 | [4] -0.182 | [5] 0.02

Quoted at random: 2 entries already listed.
MCCC1 (UniProt Q96RQ3)
inactive: [1] -0.103 | [2] 0.071 | [3] 0.033 | [4] 0.004 | [5] -0.018

MCOLN1 (UniProt Q9GZU1)
inactive: [1] -0.03

(cont.)

ME2 (UniProt P23368)
inactive: [1] 0.046 | [2] 0.073 | [3] 0.078 | [4] -0.086 | [5] 0.09

MEF2C isoform 5 (UniProt Q06413)
inactive: [1] 0.051 | [2] 0.04 | [3] -0.124 | [4] 0.064 | [5] 0.154

MBD2 (UniProt Q9UBB5)
inactive: [1] 0.078 | [2] -0.07 | [3] 0.003 | [4] 0.209 | [5] 0.04

MED16 (UniProt Q9Y2X0)
inactive: [1] -0.048 | [2] 0.012 | [3] 0.043 | [4] 0.093 | [5] 0.019

METAP1D (UniProt Q6UB28)
inactive: [1] 0.106 | [2] -0.125 | [3] 0.083 | [4] 0.08 | [5] 0.127

MCTS1 isoform 3 (UniProt Q9ULC4)
inactive: [1] 0.008 | [2] 0.013 | [3] 0.015 | [4] 0.021 | [5] -0.017

MCM6 (UniProt Q14566)
inactive: [1] -0.013 | [2] 0.042 | [3] 0.03 | [4] -0.011 | [5] -0.027

METAP1 (UniProt P53582)
inactive: [1] -0.028 | [2] -0.031 | [3] 0.042 | [4] -0.029 | [5] 0.015

MCMBP (UniProt Q9BTE3)
inactive: [1] -0.061 | [2] 0.036 | [3] 0.122 | [4] -0.048 | [5] -0.08

MFF (UniProt Q9GZY8)
inactive: [1] -0.013 | [2] 0.041 | [3] 0.064 | [4] -0.017 | [5] -0.001

MCRIP1 (UniProt I3L4Q0)
inactive: [1] 0.042 | [2] 0.087 | [3] 0.04 | [4] -0.002 | [5] 0.02

MAT2A (UniProt P31153)
inactive: [1] 0.007 | [2] -0.011 | [3] -0.031 | [4] 0.024 | [5] 0.038

MCM7 (UniProt P33993)
inactive: [1] -0.03 | [2] 0.045 | [3] -0.013 | [4] -0.013 | [5] -0.067

MECR (UniProt Q9BV79)
inactive: [1] 0.034 | [2] 0.033 | [3] 0.042 | [4] -0.037 | [5] -0.026

MIA3 (UniProt Q5JRA6)
inactive: [1] -0.011 | [2] -0.018 | [3] 0.047 | [4] 0.008 | [5] 0.036

Two neighbouring entries out of the list so far:
MCRIP1 (UniProt I3L4Q0)
inactive: [1] 0.042 | [2] 0.087 | [3] 0.04 | [4] -0.002 | [5] 0.02

MAT2A (UniProt P31153)
inactive: [1] 0.007 | [2] -0.011 | [3] -0.031 | [4] 0.024 | [5] 0.038

Continuation.

MED7 (UniProt O43513)
inactive: [1] -0.049 | [2] 0.029 | [3] 0.017 | [4] 0.016 | [5] 0.076

MGAT2 (UniProt Q10469)
inactive: [1] 0.02 | [2] 0.03 | [3] 0.087 | [4] -0.041 | [5] 0.028

MFHAS1 (UniProt Q9Y4C4)
inactive: [1] -0.016 | [2] 0.138 | [3] 0.049 | [4] 0.246 | [5] 0.092

METTL26 (UniProt Q96S19)
inactive: [1] 0.047

METTL18 (UniProt O95568)
inactive: [1] 0 | [2] -0.027 | [3] 0.061 | [4] -0.055 | [5] 0.028

METTL5 (UniProt Q9NRN9)
inactive: [1] 0.025 | [2] 0.037 | [3] 0.037 | [4] -0.004 | [5] 0.037

MDP1 (UniProt Q86V88)
inactive: [1] 0.01 | [2] 0.002 | [3] -0.028 | [4] 0.049 | [5] -0.001

MCL1 (UniProt Q07820)
inactive: [1] -0.013 | [2] 0.125 | [3] 0.135 | [4] 0.057 | [5] 0.073

MARS2 (UniProt Q96GW9)
inactive: [1] 0.035 | [2] 0.012 | [3] 0.071 | [4] -0.025 | [5] 0.054

MFN1 (UniProt Q8IWA4)
inactive: [1] 0.058 | [2] 0.042 | [3] 0.05 | [4] 0.07 | [5] -0.01

MIA2 (UniProt Q96PC5)
inactive: [1] -0.036 | [2] 0.041 | [3] 0.02 | [4] 0.029 | [5] 0.027

MBLAC2 (UniProt Q68D91)
inactive: [1] -0.02 | [2] 0.006 | [3] 0.056 | [4] -0.042 | [5] 0.009

MCCC2 (UniProt Q9HCC0)
inactive: [1] 0.029 | [2] 0.038 | [3] -0.027 | [4] -0.022 | [5] 0.026

MAZ isoform 2 (UniProt P56270)
inactive: [1] 0.07 | [2] -0.299 | [3] -0.212 | [4] 0.169 | [5] 0.121

MCM2 (UniProt P49736)
inactive: [1] -0.049 | [2] 0.048 | [3] 0.036 | [4] -0.029 | [5] -0.03

MGME1 (UniProt Q9BQP7)
inactive: [1] -0.004 | [2] 0.025 | [3] 0.008 | [4] -0.005 | [5] 0.028

MFSD5 isoform 2 (UniProt Q6N075)
inactive: [1] 0.071 | [2] 0.08 | [3] 0.112 | [4] -0.049 | [5] -0.055

MED20 (UniProt Q9H944)
inactive: [1] -0.026 | [2] 0.125 | [3] -0.017 | [4] -0.022 | [5] 0.015

MCUR1 (UniProt Q96AQ8)
inactive: [1] -0.02 | [2] 0.018 | [3] 0.007 | [4] -0.008 | [5] -0.023

MED15 (UniProt Q96RN5)
inactive: [1] -0.037 | [2] 0.083 | [3] 0.093 | [4] -0.023 | [5] 0.038

MBOAT1 (UniProt Q6ZNC8)
inactive: [1] 0.06 | [2] 0.007 | [3] 0.05 | [4] -0.214 | [5] 0.025

MAVS (UniProt Q7Z434)
inactive: [1] 0.005 | [2] 0.037 | [3] 0.016 | [4] -0.034 | [5] 0.021

MED18 (UniProt Q9BUE0)
inactive: [1] -0.001 | [2] 0.159 | [3] 0.052 | [4] -0.018 | [5] 0.039

Source: the supplement of paper PMC10849652
